Values joined by “and” are separate entries in the source; they are usually repeats but may differ in a detail not shown here. Equal entries are not always repeated. Some of the results follow. For some of these results: The source does not settle which construct or isoform was used.
What was measured:
Assay in all cases: protein microarray (ProtoArray v5.0), streptavidin-Alexa Fluor 647
Details in all cases: 3'-biotin; 20 mM Tris (pH 7.5), 5 mM MgCl2, 100 mM KCl, 0.1% Tween-20, A/T-rich and random oligonucleotide blockers; temperature not stated; high values mean tight binding
DUS3L (human) = system: DUS3L (human)
DUSP21 = target: T1, DUSP21 (UniProt Q9H596)
T1 sequence: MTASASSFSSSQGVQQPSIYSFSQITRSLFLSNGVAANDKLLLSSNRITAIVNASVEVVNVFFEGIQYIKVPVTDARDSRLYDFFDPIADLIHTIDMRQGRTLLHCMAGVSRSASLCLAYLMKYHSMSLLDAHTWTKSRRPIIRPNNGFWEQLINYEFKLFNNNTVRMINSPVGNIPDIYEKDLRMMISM

DUSP22 (human) = system: DUSP22 (human)
DUSP6 (human) = system: DUSP6 (human)
DUT (human) = system: DUT (human)
DYDC1 (human) = system: DYDC1 (human)
DYNC1LI2 (human) = system: DYNC1LI2 (human)
DYNC2LI1 (human) = system: DYNC2LI1 (human)
DYNLL1 (human) = system: DYNLL1 (human)
[1] = system: Dehydrogenase/reductase SDR family member 1 (human)

GGGAGGCTGAGGCAGG [G4-1 biotinylated (PQS2)]
binding signal (DUS3L (human)): -0.308 z-score
binding signal (DUSP21): -0.303 z-score
binding signal (DUSP22 (human)): -0.336 z-score
binding signal (DUSP6 (human)): -0.361 z-score
binding signal (DUT (human)): -0.247 z-score and -0.337 z-score
binding signal (DYDC1 (human)): -0.26 z-score
binding signal (DYNC1LI2 (human)): -0.36 z-score
binding signal (DYNC2LI1 (human)): -0.295 z-score
binding signal (DYNLL1 (human)): -0.332 z-score
binding signal [1]: -0.36 z-score and -0.334 z-score
